Measurements: US20240262917A1, “ANTIBODIES AGAINST ALK AND METHODS OF USE THEREOF” (Dana-Farber Cancer Institute, Inc., priority 2021, published 2024)
No constants are given. Whether binding was seen depends on the method and setting. Some results given as binding are weak or reduced against the parent protein; the word gives no strength.

By UniProt entry, the sequences of proteins in these tests, tags left out. Where a name states a change or a piece, a line headed by the entry shows the natural chain unless it says otherwise.
UniProt Q9UM73: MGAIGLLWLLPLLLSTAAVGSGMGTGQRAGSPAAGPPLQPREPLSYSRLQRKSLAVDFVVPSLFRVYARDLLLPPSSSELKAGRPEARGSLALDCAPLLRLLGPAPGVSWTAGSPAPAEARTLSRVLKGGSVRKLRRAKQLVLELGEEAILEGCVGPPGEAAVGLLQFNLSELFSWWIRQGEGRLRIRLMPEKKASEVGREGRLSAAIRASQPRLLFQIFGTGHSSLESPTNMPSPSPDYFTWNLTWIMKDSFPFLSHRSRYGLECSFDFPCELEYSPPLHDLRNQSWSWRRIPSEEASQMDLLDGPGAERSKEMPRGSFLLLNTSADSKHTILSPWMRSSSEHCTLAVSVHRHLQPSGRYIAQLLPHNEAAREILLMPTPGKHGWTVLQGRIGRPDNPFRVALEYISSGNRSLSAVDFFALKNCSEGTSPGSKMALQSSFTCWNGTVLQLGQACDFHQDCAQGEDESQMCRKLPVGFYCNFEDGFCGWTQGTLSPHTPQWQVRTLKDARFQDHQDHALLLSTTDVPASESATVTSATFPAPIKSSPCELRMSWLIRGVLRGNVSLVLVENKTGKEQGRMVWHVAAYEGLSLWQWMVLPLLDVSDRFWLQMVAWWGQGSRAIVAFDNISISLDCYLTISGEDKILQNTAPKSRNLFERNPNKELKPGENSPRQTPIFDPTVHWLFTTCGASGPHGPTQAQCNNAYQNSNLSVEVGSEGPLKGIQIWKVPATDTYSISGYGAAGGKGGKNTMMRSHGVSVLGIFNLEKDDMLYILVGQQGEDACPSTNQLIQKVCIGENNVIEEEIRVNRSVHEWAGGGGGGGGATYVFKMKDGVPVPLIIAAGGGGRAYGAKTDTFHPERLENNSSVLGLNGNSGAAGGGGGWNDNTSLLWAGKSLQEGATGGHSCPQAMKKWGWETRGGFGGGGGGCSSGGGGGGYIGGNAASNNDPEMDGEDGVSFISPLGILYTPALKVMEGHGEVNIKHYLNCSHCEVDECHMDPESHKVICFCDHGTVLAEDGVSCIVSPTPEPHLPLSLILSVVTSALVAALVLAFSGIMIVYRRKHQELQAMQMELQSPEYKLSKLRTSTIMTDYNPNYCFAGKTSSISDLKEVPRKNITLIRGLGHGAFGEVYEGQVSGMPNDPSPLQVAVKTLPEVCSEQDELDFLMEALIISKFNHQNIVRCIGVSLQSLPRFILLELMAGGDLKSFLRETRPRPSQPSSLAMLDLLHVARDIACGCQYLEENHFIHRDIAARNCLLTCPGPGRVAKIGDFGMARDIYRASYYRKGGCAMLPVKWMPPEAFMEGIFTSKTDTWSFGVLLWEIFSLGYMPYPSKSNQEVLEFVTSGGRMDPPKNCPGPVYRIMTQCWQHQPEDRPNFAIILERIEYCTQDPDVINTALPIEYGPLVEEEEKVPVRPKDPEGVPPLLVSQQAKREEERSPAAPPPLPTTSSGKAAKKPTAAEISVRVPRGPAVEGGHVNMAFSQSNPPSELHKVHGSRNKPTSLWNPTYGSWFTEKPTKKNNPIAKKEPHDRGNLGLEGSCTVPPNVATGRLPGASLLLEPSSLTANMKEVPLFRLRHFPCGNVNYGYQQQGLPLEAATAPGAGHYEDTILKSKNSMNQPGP

Key:
[1] = target: Full-length human anaplastic lymphoma kinase (ALK) receptor, wild type (human) (UniProt Q9UM73); test: immunoblotting, immunoprecipitation
[2] = target: Shed ALK extracellular domain fragment (ALK 1-654) (human) (UniProt Q9UM73); test: ELISA on patient sera
[3] = target: Full-length human anaplastic lymphoma kinase (ALK) receptor, wild type (human) (UniProt Q9UM73); test: hybridoma clone screening (ELISA, flow cytometry)
[4] = target: Shed ALK extracellular domain fragment (ALK 1-654) (human) (UniProt Q9UM73); test: western blot of conditioned media of NGP and ALK-expressing 293T cells
[5] = target: Full-length human anaplastic lymphoma kinase (ALK) receptor, wild type (human) (UniProt Q9UM73); test: western blot of NB cell lysates
[6] = target: Shed ALK extracellular domain fragment (ALK 1-654) (human) (UniProt Q9UM73); test: sandwich ELISA, capture antibody

Measured: binding

B1: Monoclonal anti-ALK antibody 5H3 (antibody, IgG1, V domains shown)
VH: QVQLQQSGAELVRPGASVTLSCKASGYTFTDYEMHWVKQTPVHGLEWIGAIDPETGGSAYNQKFKAKAILTADRSSSTAYMELRSLTSEDSAVYYCTRTRYYGSSPAMDYWGQGTSVTVSS
VL: DIQMTQTTSSLSASLGDRVTISCSASQGIGNYLNWYQQKPDGTVKLLIYYTSSLHSGVPSRFSGSGSGTDYSLTISNLEPEDIATYYCQQYSKLPYTFGGGTKLEIKR
binds: all assays above
